According to the supplement of paper PMC6411743:
± gives the standard deviation of the averaged measurements. Some of the results follow.

Amino acid sequences for entries named in this document (tags omitted). A change or cut given only in a name is not applied to a line headed by its entry.
UniProt Q12873: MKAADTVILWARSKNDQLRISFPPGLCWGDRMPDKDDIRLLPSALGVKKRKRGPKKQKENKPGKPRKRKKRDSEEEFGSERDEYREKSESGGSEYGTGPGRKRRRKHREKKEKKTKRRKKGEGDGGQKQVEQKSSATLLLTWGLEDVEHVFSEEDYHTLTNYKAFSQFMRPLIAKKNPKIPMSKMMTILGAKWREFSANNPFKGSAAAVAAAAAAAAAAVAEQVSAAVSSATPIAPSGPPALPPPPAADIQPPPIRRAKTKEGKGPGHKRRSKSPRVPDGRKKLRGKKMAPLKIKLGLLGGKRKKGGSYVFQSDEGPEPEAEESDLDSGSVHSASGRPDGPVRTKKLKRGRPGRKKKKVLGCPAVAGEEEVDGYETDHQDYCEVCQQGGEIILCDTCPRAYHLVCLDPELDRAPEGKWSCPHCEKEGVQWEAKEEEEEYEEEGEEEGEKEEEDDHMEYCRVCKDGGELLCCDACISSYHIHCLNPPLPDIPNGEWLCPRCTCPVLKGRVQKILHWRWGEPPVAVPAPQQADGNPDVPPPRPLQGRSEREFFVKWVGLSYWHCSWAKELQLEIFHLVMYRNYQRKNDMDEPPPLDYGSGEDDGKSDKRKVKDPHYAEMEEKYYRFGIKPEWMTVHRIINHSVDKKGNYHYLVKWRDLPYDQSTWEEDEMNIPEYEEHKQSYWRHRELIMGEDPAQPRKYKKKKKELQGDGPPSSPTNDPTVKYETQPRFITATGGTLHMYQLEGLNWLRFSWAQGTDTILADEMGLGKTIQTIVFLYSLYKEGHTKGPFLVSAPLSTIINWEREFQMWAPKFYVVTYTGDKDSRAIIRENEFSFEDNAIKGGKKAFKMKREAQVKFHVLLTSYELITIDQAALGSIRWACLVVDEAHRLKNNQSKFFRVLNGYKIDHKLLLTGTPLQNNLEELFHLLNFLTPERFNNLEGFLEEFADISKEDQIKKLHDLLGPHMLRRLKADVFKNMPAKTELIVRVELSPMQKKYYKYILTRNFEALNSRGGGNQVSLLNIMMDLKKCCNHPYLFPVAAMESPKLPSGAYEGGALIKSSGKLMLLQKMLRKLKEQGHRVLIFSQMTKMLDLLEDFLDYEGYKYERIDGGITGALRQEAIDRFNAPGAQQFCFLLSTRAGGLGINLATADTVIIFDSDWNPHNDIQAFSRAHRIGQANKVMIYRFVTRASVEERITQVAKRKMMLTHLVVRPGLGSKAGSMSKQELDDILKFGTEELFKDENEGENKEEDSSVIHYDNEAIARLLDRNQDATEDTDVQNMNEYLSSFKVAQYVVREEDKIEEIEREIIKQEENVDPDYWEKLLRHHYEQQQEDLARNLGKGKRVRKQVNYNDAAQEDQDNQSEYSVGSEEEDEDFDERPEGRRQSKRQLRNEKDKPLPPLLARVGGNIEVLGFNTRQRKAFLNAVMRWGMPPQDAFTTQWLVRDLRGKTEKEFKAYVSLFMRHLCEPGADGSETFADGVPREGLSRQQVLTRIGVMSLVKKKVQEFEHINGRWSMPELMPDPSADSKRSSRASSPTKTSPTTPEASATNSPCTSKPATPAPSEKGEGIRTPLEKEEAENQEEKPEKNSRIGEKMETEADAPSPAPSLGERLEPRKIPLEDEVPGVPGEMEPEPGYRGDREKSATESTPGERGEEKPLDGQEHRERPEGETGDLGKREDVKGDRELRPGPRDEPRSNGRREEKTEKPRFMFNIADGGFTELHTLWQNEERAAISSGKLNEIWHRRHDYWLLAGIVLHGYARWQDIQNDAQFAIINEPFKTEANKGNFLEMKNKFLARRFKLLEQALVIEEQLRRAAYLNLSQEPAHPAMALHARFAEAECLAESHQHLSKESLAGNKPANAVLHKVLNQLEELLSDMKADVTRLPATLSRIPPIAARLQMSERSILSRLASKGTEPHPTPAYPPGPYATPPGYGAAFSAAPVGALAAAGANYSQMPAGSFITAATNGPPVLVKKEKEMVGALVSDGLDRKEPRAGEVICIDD
UniProt Q10570: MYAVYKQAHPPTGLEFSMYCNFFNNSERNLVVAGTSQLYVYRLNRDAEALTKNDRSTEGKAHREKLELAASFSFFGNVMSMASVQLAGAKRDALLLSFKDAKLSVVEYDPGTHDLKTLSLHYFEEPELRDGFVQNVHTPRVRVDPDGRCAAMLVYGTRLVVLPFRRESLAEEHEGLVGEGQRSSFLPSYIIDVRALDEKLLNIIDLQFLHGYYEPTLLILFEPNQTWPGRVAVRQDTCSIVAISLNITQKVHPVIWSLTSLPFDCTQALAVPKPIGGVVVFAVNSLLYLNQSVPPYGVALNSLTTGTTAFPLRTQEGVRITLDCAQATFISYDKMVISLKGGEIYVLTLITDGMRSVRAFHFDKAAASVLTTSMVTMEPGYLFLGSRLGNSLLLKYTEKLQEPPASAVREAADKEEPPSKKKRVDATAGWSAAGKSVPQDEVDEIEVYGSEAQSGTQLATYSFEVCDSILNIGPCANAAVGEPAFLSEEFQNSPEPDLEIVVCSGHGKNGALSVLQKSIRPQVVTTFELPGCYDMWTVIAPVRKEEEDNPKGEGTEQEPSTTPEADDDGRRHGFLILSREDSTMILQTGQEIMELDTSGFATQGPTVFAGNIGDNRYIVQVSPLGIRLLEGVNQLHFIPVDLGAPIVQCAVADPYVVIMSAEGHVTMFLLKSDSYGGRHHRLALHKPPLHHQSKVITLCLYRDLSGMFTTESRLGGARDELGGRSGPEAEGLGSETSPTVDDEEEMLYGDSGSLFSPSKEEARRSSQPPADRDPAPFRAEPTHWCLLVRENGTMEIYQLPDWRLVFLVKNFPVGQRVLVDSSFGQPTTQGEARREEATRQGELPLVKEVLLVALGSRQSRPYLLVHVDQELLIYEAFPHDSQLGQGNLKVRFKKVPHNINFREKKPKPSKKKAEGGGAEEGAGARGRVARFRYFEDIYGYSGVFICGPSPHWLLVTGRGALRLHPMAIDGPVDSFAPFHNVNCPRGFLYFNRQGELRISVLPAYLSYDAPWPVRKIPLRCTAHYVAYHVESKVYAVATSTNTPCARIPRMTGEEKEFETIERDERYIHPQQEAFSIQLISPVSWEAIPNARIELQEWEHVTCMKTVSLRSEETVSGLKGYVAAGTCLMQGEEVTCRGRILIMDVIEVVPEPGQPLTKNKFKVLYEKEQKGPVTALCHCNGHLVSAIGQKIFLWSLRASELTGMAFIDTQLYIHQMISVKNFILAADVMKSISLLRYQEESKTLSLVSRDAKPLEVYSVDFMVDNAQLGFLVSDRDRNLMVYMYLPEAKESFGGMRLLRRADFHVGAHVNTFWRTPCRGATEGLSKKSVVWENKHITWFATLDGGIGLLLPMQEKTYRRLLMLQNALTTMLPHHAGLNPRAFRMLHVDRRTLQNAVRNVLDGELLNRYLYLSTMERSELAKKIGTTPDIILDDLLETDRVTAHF
UniProt Q13263: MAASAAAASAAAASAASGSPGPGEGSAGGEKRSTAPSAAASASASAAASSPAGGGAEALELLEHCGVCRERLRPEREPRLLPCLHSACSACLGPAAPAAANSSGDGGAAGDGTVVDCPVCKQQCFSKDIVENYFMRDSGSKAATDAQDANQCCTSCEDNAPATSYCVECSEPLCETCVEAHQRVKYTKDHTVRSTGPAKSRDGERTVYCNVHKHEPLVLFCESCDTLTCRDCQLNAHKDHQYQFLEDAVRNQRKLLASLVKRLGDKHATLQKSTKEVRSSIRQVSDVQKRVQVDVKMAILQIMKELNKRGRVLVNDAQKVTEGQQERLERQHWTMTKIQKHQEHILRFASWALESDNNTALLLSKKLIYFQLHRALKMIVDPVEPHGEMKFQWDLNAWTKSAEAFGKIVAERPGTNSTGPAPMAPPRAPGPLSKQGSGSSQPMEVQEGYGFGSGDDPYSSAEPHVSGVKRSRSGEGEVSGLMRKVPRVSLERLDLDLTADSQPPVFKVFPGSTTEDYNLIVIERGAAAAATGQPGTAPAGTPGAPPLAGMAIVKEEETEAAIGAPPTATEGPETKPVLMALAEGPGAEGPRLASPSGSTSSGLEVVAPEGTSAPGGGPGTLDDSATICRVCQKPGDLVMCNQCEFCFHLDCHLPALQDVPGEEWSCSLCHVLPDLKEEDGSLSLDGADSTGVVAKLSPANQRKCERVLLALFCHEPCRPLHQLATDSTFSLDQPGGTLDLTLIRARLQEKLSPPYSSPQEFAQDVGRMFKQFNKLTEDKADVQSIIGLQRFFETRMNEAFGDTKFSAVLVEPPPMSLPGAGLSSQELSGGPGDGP
UniProt Q07065: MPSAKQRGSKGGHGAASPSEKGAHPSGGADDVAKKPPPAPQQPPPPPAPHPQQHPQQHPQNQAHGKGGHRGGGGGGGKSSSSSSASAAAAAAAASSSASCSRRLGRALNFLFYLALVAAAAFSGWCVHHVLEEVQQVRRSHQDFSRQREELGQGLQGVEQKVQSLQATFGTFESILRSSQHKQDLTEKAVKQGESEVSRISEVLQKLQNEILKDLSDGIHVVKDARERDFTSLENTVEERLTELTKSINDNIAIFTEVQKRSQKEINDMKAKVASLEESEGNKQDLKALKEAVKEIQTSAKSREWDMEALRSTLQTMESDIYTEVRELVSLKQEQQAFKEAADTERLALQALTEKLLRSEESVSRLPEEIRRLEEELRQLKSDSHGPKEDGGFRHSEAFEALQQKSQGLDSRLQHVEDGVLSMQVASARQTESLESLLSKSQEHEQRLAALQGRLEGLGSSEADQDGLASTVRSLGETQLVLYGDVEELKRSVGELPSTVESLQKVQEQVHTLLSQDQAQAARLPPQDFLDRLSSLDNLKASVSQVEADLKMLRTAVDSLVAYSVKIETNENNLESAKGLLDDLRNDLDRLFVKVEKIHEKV

Compound: Nc1nc2c(ncn2[C@@H]2O[C@H](COP(=O)(O)OP(=O)(O)OP(=O)(O)O)[C@@H](O)[C@H]2O)c(=O)[nH]1 [guanosine triphosphate]
Assay: NP40-soluble protein abundance relative to vehicle (solubility fold change) (ratio); higher = more soluble protein in presence of GTP
Procedure: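 Solubility proteome profiling in Jurkat crude lysate. Lysate was treated with Mg-GTP (0.1-10 mM) for 10 min at room temperature and 3 min at 37 °C, then solubilised with 0.8% NP40 and benzonase, followed by ultracentrifugation. Proteins were quantified by TMT10 LC-MS/MS; the value is the NP40-soluble abundance relative to the NP40-processed vehicle, from 3 independent experiments.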

Target | NP40-soluble protein abundance (concentration: 0.1mM) | NP40-soluble protein abundance (concentration: 0.5mM) | NP40-soluble protein abundance (concentration: 1mM) | NP40-soluble protein abundance (concentration: 2mM) | NP40-soluble protein abundance (concentration: 4mM) | NP40-soluble protein abundance (concentration: 6mM) | NP40-soluble protein abundance (concentration: 8mM) | NP40-soluble protein abundance (concentration: 10mM)
UniProt Q12873 and related entries | 1.06 ± 0.054 | 1.12 ± 0.12 | 1.12 ± 0.13 | 1.22 ± 0.19 | 1.25 ± 0.21 | 1.27 ± 0.19 | 1.28 ± 0.19 | 1.28 ± 0.17
CPSF1 (UniProt Q10570) | 1.1 ± 0.043 | 1.15 ± 0.085 | 1.13 ± 0.063 | 1.19 ± 0.11 | 1.26 ± 0.087 | 1.26 ± 0.096 | 1.26 ± 0.13 | 1.22 ± 0.098
TRIM28 (UniProt Q13263) | 0.981 ± 0.041 | 0.98 ± 0.028 | 0.988 ± 0.061 | 0.948 ± 0.058 | 0.944 ± 0.06 | 0.95 ± 0.06 | 0.97 ± 0.035 | 0.939 ± 0.04
RPL6 (UniProt Q02878) | 0.975 ± 0.041 | 1.02 ± 0.099 | 1.03 ± 0.12 | 0.999 ± 0.2 | 0.899 ± 0.19 | 0.865 ± 0.18 | 0.706 ± 0.14 | 0.882 ± 0.21
CKAP4 (UniProt Q07065) | 0.997 ± 0.085 | 0.942 ± 0.1 | 1.04 ± 0.067 | 1.04 ± 0.095 | 1.12 ± 0.11 | 1.1 ± 0.12 | 1.11 ± 0.12 | 1.14 ± 0.08
